In the supplement of paper PMC6078165:

Tested on: BT20
Test: relative JC-1 red fluorescence (viability) vs pre-drug, coculture with fibroblast (fraction); higher = more viable cancer cells
Settings: 0.1 µM
Protocol: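 JC-1 labelled TNBC cells cocultured 1:1 (1,500 cells each) with CellTrace Violet stained primary or stromal fibroblasts in 384-well plates in FluoroBrite medium, treated with one of 42 anticancer drugs at 0.1, 1, 10 or 100 uM. JC-1 red fluorescence (mitochondrial integrity in cancer cells only) was read by plate reader every 8 h for 72 h. Values are normalised to each well's pre-drug value. The stock of one drug was tenfold lower, so its dose labels may be too high.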

CC(C)C[C@H](NC(=O)[C@@H](COC(C)(C)C)NC(=O)[C@H](Cc1ccc(O)cc1)NC(=O)[C@H](CO)NC(=O)[C@H](Cc1c[nH]c2ccccc12)NC(=O)[C@H](Cc1cnc[nH]1)NC(=O)[C@@H]1CCC(=O)N1)C(=O)N[C@@H](CCCNC(=N)N)C(=O)N1CCC[C@H]1C(=O)NNC(N)=O [Goserelin]
relative JC-1 red fluorescence
Settings	40 h	48 h	56 h	64 h	72 h
coculture fibroblast: C12385	–	0.5565 ± 0.0053	0.53215 ± 9.5e-05	0.51345 ± 0.00042	0.496 ± 0.0084
coculture fibroblast: H6013	–	0.8686 ± 0.0039	0.8926 ± 0.0036	0.8818 ± 0.0036	0.871 ± 0.011
coculture fibroblast: H6019	–	0.703 ± 0.16	0.683 ± 0.18	0.676 ± 0.19	0.662 ± 0.21
coculture fibroblast: H6076	–	0.691 ± 0.028	0.679 ± 0.02	0.677 ± 0.024	0.662 ± 0.015
coculture fibroblast: H6231	–	0.6285 ± 0.0047	0.5861 ± 0.0049	0.567 ± 0.011	0.534 ± 0.022
coculture fibroblast: HADF	–	0.694 ± 0.051	0.674 ± 0.06	0.663 ± 0.05	0.63 ± 0.054
coculture fibroblast: HCFa	–	0.597 ± 0.045	0.56 ± 0.046	0.536 ± 0.05	0.498 ± 0.042
coculture fibroblast: HCPF	–	0.692 ± 0.03	0.641 ± 0.04	0.625 ± 0.043	0.582 ± 0.042
coculture fibroblast: HHSteC	0.672 ± 0.04	0.634 ± 0.036	0.607 ± 0.042	0.578 ± 0.045	0.548 ± 0.044
coculture fibroblast: HMF	0.667 ± 0.0065	0.6312 ± 0.0019	0.607 ± 0.0068	0.586 ± 0.014	0.573 ± 0.016
coculture fibroblast: HPFa	0.84 ± 0.094	0.803 ± 0.1	0.776 ± 0.11	0.745 ± 0.12	0.686 ± 0.12
coculture fibroblast: HUF	0.724 ± 0.11	0.685 ± 0.11	0.651 ± 0.097	0.639 ± 0.096	0.612 ± 0.089
coculture fibroblast: Hs5	0.67 ± 0.018	0.629 ± 0.013	0.587 ± 0.013	0.548 ± 0.011	0.5134 ± 0.0029
coculture fibroblast: Hs27A	0.835 ± 0.064	0.809 ± 0.065	0.79 ± 0.059	0.77 ± 0.062	0.726 ± 0.065
coculture fibroblast: Hs343T	0.688 ± 0.029	0.642 ± 0.042	0.599 ± 0.033	0.584 ± 0.026	0.56 ± 0.027
coculture fibroblast: WS1	0.562 ± 0.05	0.528 ± 0.056	0.502 ± 0.07	0.475 ± 0.083	0.458 ± 0.086

± gives the standard deviation of the averaged measurements. The reference is the same well before dosing, and untreated signal decays as well.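 Fibroblast labels denote human fibroblasts, mainly primary ones from uterus (C12385, HUF), lung (H6013), bone (Hs27A), adrenal (HADF) and skin (WS1), plus mammary HMF and breast cancer-associated Hs343T. Cancer cells are basal-like or mesenchymal-like triple-negative breast cancer lines. A hit is a response shift exceeding 3x replicate standard deviation. The tissue of the other fibroblasts is not given here.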
